Sequences of proteins named here, by UniProt entry; tags and fusion partners are left off. A change or cut given only in a name is not applied to a line headed by its entry.
UniProt Q9H7X7: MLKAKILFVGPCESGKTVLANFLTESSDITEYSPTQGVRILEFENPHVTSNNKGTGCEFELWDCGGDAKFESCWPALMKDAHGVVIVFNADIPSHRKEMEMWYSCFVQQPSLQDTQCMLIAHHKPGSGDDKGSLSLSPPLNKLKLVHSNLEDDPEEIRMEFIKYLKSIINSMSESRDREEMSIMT
UniProt P35221: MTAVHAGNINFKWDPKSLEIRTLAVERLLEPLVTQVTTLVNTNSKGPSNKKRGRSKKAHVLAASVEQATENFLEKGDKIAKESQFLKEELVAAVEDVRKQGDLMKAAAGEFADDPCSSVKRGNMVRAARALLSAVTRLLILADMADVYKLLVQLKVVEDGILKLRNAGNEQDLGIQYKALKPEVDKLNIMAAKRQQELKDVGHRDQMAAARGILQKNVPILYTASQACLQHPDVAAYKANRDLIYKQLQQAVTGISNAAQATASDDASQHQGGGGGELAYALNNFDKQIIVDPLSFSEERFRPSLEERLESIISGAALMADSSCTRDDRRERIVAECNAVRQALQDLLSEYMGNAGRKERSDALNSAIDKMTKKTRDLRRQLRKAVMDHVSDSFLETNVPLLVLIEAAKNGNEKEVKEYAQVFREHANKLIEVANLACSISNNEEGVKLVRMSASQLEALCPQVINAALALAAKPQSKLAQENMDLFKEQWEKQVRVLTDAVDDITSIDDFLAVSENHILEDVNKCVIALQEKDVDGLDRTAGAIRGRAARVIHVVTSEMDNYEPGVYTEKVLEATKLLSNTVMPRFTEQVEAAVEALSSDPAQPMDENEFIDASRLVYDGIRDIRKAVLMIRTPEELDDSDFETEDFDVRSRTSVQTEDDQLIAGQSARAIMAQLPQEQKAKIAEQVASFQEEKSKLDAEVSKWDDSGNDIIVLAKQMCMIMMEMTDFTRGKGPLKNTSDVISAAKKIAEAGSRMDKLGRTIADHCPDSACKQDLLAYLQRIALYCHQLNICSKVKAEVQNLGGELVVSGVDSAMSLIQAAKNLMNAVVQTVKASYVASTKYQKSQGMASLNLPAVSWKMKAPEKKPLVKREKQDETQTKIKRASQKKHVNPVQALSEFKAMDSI
UniProt Q16514: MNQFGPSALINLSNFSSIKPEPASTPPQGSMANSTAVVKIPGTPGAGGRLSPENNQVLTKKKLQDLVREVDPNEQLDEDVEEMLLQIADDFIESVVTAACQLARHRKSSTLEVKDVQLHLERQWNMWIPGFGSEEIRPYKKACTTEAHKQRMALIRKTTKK
UniProt Q4G0J3: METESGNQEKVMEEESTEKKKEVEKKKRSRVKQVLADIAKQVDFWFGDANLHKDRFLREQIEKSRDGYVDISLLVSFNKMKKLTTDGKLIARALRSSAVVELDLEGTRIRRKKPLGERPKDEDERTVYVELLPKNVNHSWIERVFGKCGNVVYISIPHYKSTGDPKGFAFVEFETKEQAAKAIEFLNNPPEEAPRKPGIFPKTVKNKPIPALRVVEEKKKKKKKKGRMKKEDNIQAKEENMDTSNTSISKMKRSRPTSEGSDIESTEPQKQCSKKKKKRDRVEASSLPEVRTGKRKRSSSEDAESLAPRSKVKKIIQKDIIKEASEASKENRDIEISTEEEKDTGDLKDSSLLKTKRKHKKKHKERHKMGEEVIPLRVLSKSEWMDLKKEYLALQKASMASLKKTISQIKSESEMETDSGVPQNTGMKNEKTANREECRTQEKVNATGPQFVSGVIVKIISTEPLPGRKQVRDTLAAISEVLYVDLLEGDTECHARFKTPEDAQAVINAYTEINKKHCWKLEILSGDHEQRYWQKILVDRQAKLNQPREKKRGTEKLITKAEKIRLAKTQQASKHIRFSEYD
UniProt Q8WTV0: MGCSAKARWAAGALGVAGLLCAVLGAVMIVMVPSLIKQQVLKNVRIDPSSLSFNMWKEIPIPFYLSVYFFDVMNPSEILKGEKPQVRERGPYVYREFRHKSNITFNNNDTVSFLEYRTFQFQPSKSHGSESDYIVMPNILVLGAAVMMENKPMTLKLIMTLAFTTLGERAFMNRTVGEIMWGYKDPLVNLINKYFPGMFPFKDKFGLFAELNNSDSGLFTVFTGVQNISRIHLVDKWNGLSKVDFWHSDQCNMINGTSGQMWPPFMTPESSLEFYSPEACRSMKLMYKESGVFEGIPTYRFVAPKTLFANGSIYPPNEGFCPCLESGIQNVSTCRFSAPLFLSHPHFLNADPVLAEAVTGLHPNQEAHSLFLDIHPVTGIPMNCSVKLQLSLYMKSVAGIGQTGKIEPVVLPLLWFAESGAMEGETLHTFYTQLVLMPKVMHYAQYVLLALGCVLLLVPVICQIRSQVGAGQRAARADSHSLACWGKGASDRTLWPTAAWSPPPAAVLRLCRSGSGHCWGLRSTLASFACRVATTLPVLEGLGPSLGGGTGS
UniProt Q00169: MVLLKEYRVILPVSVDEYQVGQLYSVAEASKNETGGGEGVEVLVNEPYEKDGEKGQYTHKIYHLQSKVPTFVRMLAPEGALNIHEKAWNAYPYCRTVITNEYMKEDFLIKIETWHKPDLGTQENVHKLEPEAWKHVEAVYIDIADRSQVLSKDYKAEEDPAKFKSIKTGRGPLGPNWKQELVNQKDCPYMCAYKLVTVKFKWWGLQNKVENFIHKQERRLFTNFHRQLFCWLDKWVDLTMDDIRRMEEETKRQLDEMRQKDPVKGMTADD
UniProt P09601: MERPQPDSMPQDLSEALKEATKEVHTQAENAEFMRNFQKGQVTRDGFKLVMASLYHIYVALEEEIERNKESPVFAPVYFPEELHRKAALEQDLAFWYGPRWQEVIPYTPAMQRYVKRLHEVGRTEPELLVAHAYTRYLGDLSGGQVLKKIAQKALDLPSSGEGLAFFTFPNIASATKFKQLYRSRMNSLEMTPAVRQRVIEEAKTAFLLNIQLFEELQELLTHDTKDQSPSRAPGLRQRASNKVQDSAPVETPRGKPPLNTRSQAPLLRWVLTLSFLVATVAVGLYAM
UniProt Q17R31: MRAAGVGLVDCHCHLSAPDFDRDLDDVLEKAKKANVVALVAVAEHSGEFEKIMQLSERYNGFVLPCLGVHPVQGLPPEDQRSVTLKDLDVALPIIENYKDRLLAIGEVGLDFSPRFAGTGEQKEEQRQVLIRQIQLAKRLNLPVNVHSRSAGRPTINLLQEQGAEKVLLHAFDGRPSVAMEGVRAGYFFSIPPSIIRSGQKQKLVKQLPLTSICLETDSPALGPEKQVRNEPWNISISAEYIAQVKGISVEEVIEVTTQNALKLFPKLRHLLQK
UniProt Q7Z6K3: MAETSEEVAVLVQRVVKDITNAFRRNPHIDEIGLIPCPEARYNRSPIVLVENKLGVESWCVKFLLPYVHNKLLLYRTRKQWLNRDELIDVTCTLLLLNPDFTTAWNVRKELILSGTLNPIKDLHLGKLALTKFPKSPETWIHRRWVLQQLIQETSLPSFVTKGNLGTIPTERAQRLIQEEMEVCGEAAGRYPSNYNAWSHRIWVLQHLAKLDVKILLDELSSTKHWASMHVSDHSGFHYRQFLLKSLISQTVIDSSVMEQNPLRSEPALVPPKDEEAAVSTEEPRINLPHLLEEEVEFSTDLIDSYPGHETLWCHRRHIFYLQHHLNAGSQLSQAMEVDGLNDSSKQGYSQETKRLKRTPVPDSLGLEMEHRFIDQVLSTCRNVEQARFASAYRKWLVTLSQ
UniProt Q9HCU5: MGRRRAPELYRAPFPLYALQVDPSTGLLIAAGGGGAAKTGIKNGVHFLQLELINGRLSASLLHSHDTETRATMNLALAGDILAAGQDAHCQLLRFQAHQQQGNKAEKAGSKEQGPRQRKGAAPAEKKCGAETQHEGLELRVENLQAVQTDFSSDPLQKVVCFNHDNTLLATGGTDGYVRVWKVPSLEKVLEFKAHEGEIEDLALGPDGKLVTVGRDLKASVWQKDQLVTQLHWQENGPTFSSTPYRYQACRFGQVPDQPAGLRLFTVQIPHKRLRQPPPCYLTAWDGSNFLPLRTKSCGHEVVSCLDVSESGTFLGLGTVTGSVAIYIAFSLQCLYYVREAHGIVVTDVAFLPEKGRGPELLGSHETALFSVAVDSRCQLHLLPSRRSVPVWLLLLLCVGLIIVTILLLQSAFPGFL
UniProt O94964: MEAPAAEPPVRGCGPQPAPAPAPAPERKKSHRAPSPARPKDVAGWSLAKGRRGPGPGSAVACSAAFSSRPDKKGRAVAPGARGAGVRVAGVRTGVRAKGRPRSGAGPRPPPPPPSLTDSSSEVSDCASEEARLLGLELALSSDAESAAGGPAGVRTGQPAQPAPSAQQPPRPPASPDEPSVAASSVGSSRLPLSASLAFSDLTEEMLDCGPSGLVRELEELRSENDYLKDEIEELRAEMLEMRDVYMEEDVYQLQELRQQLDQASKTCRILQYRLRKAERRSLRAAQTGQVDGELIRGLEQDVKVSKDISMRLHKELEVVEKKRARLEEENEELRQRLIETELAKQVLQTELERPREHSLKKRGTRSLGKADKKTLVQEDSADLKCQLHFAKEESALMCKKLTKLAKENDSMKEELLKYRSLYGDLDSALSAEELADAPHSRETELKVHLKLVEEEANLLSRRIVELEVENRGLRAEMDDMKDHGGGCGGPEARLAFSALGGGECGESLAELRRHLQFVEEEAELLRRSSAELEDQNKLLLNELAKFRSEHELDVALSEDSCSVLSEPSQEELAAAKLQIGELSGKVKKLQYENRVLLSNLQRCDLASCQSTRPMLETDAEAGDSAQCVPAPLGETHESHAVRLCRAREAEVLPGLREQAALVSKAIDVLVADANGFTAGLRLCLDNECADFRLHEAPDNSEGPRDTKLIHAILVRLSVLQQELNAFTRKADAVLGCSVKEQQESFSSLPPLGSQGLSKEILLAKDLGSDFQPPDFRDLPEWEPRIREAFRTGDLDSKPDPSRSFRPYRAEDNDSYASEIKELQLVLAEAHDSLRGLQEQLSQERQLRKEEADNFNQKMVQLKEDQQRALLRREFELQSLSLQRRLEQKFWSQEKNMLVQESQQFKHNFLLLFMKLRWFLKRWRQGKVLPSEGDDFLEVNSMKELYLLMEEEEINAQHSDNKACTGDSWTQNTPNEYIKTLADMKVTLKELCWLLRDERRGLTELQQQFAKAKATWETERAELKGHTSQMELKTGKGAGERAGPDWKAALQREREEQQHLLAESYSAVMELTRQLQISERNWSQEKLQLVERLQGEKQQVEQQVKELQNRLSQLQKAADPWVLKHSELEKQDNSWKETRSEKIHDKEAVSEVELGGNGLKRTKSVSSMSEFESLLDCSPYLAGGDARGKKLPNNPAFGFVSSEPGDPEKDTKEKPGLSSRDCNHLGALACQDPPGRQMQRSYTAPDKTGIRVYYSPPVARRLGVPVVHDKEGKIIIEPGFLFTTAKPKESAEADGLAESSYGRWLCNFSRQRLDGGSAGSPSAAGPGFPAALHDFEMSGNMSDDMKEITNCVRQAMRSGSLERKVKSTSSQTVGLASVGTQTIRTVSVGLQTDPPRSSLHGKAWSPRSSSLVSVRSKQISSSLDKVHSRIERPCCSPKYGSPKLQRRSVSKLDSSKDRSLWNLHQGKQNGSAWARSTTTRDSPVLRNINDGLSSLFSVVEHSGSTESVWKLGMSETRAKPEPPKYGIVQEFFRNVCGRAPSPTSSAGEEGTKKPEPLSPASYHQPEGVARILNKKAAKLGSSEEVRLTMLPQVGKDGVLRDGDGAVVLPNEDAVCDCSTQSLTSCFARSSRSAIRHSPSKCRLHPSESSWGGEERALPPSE
UniProt Q9Y2I8: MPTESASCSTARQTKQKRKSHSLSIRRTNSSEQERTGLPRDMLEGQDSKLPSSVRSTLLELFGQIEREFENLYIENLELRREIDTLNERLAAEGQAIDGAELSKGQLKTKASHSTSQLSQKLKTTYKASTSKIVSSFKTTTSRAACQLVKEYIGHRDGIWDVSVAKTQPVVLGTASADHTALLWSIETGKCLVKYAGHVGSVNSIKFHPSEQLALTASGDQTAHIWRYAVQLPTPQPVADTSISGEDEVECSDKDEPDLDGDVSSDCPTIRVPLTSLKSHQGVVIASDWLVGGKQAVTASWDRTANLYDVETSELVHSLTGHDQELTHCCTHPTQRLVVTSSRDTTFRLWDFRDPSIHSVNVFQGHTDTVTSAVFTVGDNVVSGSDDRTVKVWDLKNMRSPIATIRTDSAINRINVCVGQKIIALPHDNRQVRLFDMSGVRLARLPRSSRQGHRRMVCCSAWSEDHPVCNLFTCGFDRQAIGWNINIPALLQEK
UniProt Q96B01: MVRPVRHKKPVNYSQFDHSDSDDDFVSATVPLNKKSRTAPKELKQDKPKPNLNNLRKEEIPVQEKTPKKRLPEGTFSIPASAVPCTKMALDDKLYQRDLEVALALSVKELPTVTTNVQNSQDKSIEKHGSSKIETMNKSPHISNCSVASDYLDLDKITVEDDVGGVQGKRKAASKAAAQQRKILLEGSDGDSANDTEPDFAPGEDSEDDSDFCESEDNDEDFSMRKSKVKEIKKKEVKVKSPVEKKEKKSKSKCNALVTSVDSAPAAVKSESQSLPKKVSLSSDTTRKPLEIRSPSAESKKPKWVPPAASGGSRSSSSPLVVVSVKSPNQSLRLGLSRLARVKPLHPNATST

According to the supplement of paper PMC10060354, “Discovery of a small molecule ligand of FRS2 that inhibits invasion and tumor growth” (Cellular Oncology, 2022):

Compound: [O-][N+](C(C1=C(C(O)=C2)NC(C(C=C3)=CC=C3Cl)C4C1C=CC4)=C2Cl)=O
Assay: melting temperature shift (compound 7 minus DMSO); higher = compound stabilises the protein
Settings: 10 µM
Experimental: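 Thermal proteome profiling (TMT mass spectrometry) in intact DAOY medulloblastoma cells or DAOY lysates treated with 10 µM compound 7 or DMSO, heated at 10 temperatures from 40.5 to 73.8 °C for 3 min. Melting curves were fitted with the Bioconductor TPP package, and the melting point difference between compound and vehicle is reported per protein (single curve per condition).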

[1] = system: DAOY cell lysate, treatment time: 20 min, 4 °C
[2] = system: intact DAOY cells, treatment time: 90 min, 37 °C

| Target | melting temperature shift [1] | melting temperature shift [2] |
| --- | --- | --- |
| DPP9 (UniProt Q86TI2) | -0.627 °C | -0.137 °C |
| TTC38 (UniProt Q5R3I4) | -0.445 °C |  |
| UniProt Q9H7X7 | 0.981 °C |  |
| UniProt P08235 |  | 1.62 °C |
| MCMBP (UniProt Q9BTE3) | -0.552 °C | -0.134 °C |
| EIF3L (UniProt Q9Y262) | 0.00923 °C | -0.0197 °C |
| CD3EAP (UniProt O15446) | 1.63 °C |  |
| UniProt Q14938 |  | -1.78 °C |
| P3H1 (UniProt Q32P28) | 0.611 °C | 0.805 °C |
| GNPAT (UniProt O15228) | 0.676 °C | 0.635 °C |
| STRN3 (UniProt Q13033) | -0.0327 °C | -0.0642 °C |
| PSMD9 (UniProt O00233) | 1.85 °C |  |
| CTNNA1 (UniProt P35221) | 0.478 °C | 0.0628 °C |
| RBMX (UniProt P38159) | 1.32 °C | -0.678 °C |
| CRABP2 (UniProt P29373) | -0.902 °C | 1.01 °C |
| LRRC8E (UniProt Q6NSJ5) | -0.277 °C | -2.48 °C |
| UniProt Q86W74 |  | -0.868 °C |
| UniProt Q6Y2X3 |  | 2.05 °C |
| UniProt Q16514 | -0.59 °C |  |
| SNTB2 (UniProt Q13425) | 0.862 °C | -0.0749 °C |
| CCNB1 (UniProt P14635) | -0.444 °C | -0.136 °C |
| SF3A1 (UniProt Q15459) | -0.49 °C | 0.599 °C |
| LARP7 (UniProt Q4G0J3) | -0.056 °C | -0.435 °C |

| Target | melting temperature shift [1] | melting temperature shift [2] |
| --- | --- | --- |
| SCARB1 (UniProt Q8WTV0) | 2.55 °C | -1.35 °C |
| TRIM28 (UniProt Q13263) | -0.687 °C | 0.179 °C |
| UniProt Q5U3C3 | 1.35 °C | -3.11 °C |
| PRKAR2A (UniProt P13861) | -0.0812 °C | -0.09 °C |
| UniProt P57723 |  | -2.02 °C |
| POGLUT1 (UniProt Q8NBL1) | 0.0737 °C | 1.4 °C |
| UniProt Q9Y519 |  | -0.615 °C |
| UniProt Q9ULX9 | -0.889 °C | 1.49 °C |
| TLDC1 (UniProt Q6P9B6) | 1.09 °C | 1.41 °C |
| PITPNA (UniProt Q00169) | -2.03 °C | 0.489 °C |
| ARPP19 (UniProt P56211) | -0.913 °C |  |
| BRAF (UniProt P15056) | -0.984 °C | -0.232 °C |
| ADAM17 (UniProt P78536) | -0.241 °C | 0.406 °C |
| UniProt Q7LC44 | 0.256 °C |  |
| HMOX1 (UniProt P09601) | 1.31 °C | 0.546 °C |
| UHRF1BP1L (UniProt A0JNW5) | 0.0213 °C |  |
| ABCD3 (UniProt P28288) | -1.42 °C | -2.2 °C |
| FADS1 (UniProt O60427) | 2.49 °C | 1.94 °C |
| URI1 (UniProt O94763) | 0.403 °C | -0.377 °C |
| UniProt O15484 | -0.332 °C |  |
| RPS16 (UniProt P62249) | 0.093 °C | -0.642 °C |
| TRUB2 (UniProt O95900) | -3.71 °C | -0.78 °C |
| OSBPL9 (UniProt Q96SU4) | -1.46 °C | 1.18 °C |

| Target | melting temperature shift [1] | melting temperature shift [2] |
| --- | --- | --- |
| UniProt Q96CG8 | 0.024 °C | 0.539 °C |
| CPSF3L (UniProt Q5TA45) | -0.622 °C | 1.2 °C |
| UniProt Q9HCJ6 | -0.967 °C |  |
| HNRNPC (UniProt P07910) | 1.49 °C | -0.613 °C |
| SLC16A1 (UniProt P53985) | 5.99 °C |  |
| SSR2 (UniProt P43308) | 1.86 °C | -0.802 °C |
| UniProt Q674X7 | 2.06 °C |  |
| DDX59 (UniProt Q5T1V6) | -0.879 °C | -2.3 °C |
| PPAN (UniProt Q9NQ55) | 0.789 °C |  |
| UniProt Q17R31 | 1.14 °C |  |
| TSN (UniProt Q15631) | -1.09 °C | -1.05 °C |
| TRAPPC2L (UniProt Q9UL33) | -0.781 °C | -0.16 °C |
| DIS3 (UniProt Q9Y2L1) | -0.747 °C | -0.455 °C |
| REPS1 (UniProt Q96D71) | -0.862 °C | 0.188 °C |
| UniProt P09936 | -0.558 °C | 0.746 °C |
| STAMBPL1 (UniProt Q96FJ0) |  | -0.396 °C |
| ATP9A (UniProt O75110) | -1.4 °C |  |
| ANKFY1 (UniProt Q9P2R3) | -1.07 °C | -0.184 °C |
| SNRPC (UniProt P09234) |  | -1.06 °C |
| EIF5A (UniProt P63241) | -0.707 °C | -0.153 °C |
| ZC3HC1 (UniProt Q86WB0) | -0.719 °C | -1.08 °C |
| RPL24 (UniProt P83731) | 1.17 °C | -0.709 °C |
| UniProt A6NKH3 |  | -1.28 °C |

Another view of part of the listing above.
Target	melting temperature shift [1]	melting temperature shift [2]
UniProt Q674X7	2.06 °C	
DDX59 (UniProt Q5T1V6)	-0.879 °C	-2.3 °C
PPAN (UniProt Q9NQ55)	0.789 °C	
UniProt Q17R31	1.14 °C	
TSN (UniProt Q15631)	-1.09 °C	-1.05 °C
TRAPPC2L (UniProt Q9UL33)	-0.781 °C	-0.16 °C

Going on with the list.

| Target | melting temperature shift [1] | melting temperature shift [2] |
| --- | --- | --- |
| PTAR1 (UniProt Q7Z6K3) | -0.847 °C | 0.47 °C |
| LRRC47 (UniProt Q8N1G4) | -0.167 °C | 0.206 °C |
| PREB (UniProt Q9HCU5) | 1.53 °C | 1.65 °C |
| HSPA12A (UniProt O43301) | -0.382 °C |  |
| UniProt Q5JNZ5 |  | -0.698 °C |
| SCAF4 (UniProt O95104) | 0.0797 °C | -1.04 °C |
| UniProt Q9UK61 | 1.38 °C | 1.57 °C |
| SOGA1 (UniProt O94964) |  | -3.17 °C |
| MMGT1 (UniProt Q8N4V1) | 0.948 °C | -0.202 °C |
| MTCH2 (UniProt Q9Y6C9) | 2.15 °C | 0.0531 °C |
| UniProt P13612 | -0.0378 °C |  |
| RHOA (UniProt P61586) | 0.537 °C | -1.88 °C |
| RMND1 (UniProt Q9NWS8) | 0.322 °C | -0.918 °C |
| RNF40 (UniProt O75150) | -0.875 °C | 0.0116 °C |
| TANGO6 (UniProt Q9C0B7) |  | -0.248 °C |
| UniProt Q9Y3C7 | -0.982 °C |  |
| GFPT2 (UniProt O94808) | -0.73 °C | 1.37 °C |
| UniProt Q9Y2I8 | 0.241 °C |  |
| RNF126 (UniProt Q9BV68) | -3.34 °C |  |
| RAD51AP1 (UniProt Q96B01) | 0.841 °C |  |
| UniProt P47897 | -1.1 °C | -0.771 °C |
| IFIT3 (UniProt O14879) | 0.451 °C | 1.77 °C |
| ACTR6 (UniProt Q9GZN1) | 0.42 °C | -0.305 °C |

Repeats are few or missing, and single values can be far off.
